Laboratory results reported in the supplement of paper PMC11264405.

Experiments:
Test in all cases: minimum inhibitory concentration
[1] = compound: CCc1c(Cl)c(O)c(Cl)c(O)c1C(=O)O[C@H]1[C@H](O)[C@H](OC)[C@H](OC/C2=C\C=C\C[C@H](O)/C(C)=C/[C@H](CC)[C@@H](O[C@@H]3OC(C)(C)[C@@H](OC(=O)C(C)C)[C@H](O)[C@@H]3O)/C(C)=C/C(C)=C/C[C@@H]([C@@H](C)O)OC2=O)O[C@@H]1C [fidaxomicin]
[2] = compound: C[C@@H](O)[C@H]1C(=O)N2C(C(=O)O)=C(S[C@@H]3CN[C@H](C(=O)N(C)C)C3)[C@H](C)[C@H]12 [meropenem]
[3] = compound: CN[C@H](CC(C)C)C(=O)N[C@H]1C(=O)N[C@@H](CC(N)=O)C(=O)N[C@H]2C(=O)N[C@H]3C(=O)N[C@H](C(=O)N[C@H](C(=O)O)c4cc(O)cc(O)c4-c4cc3ccc4O)[C@H](O)c3ccc(c(Cl)c3)Oc3cc2cc(c3O[C@@H]2O[C@H](CO)[C@@H](O)[C@H](O)[C@H]2O[C@H]2C[C@](C)(N)[C@H](O)[C@H](C)O2)Oc2ccc(cc2Cl)[C@H]1O [vancomycin]
[4] = compound: Cc1ncc([N+](=O)[O-])n1CCO [metronidazole]
[5] = compound: CC(=O)NC[C@H]1CN(c2ccc(N3CCOCC3)c(F)c2)C(=O)O1 [linezolid]
[6] = compound: CN(C)c1cc(NC(=O)CNC(C)(C)C)c(O)c2c1C[C@H]1C[C@H]3[C@H](N(C)C)C(O)=C(C(N)=O)C(=O)[C@@]3(O)C(O)=C1C2=O [tigecycline]
[7] = compound: CCC[C@@H]1C[C@@H](C(=O)N[C@@H]([C@H]2O[C@H](SC)[C@H](O)[C@@H](O)[C@H]2O)[C@H](C)Cl)N(C)C1 [clindamycin]
[8] = compound: CO[C@H]1/C=C/O[C@@]2(C)Oc3c(C)c(O)c4c(O)c(c(/C=N/N5CCN(C)CC5)c(O)c4c3C2=O)NC(=O)/C(C)=C\C=C\[C@H](C)[C@H](O)[C@@H](C)[C@@H](O)[C@@H](C)[C@H](OC(C)=O)[C@@H]1C [rifampicin]
[9] = compound: C[C@@H](O)[C@H]1C(=O)N2C(C(=O)O)=C(SCCNC=N)C[C@H]12 [imipenem]

| Test System | minimum inhibitory concentration [1] [µg/mL] | minimum inhibitory concentration [2] [µg/mL] | minimum inhibitory concentration [3] [µg/mL] | minimum inhibitory concentration [4] [µg/mL] | minimum inhibitory concentration [5] [µg/mL] | minimum inhibitory concentration [6] [µg/mL] | minimum inhibitory concentration [7] [µg/mL] | minimum inhibitory concentration [8] [µg/mL] | minimum inhibitory concentration [9] [µg/mL] |
| --- | --- | --- | --- | --- | --- | --- | --- | --- | --- |
| Clostridioides difficile PCR ribotype 020 isolate #100 (European region: West, country: Belgium, isolate source: Human, ribotype: 020) | 0.03 | 2 | 0.5 | 0.25 | 2 | 0.125 | 16 | < 0.001 | 2 |
| Clostridioides difficile PCR ribotype 020 isolate #101 (European region: North, country: UK, isolate source: Human, ribotype: 020) | 0.03 | 2 | 0.5 | < 0.125 | < 0.125 | 0.06 | 0.25 | < 0.001 | 2 |
| Clostridioides difficile PCR ribotype 020 isolate #102 (European region: North, country: UK, isolate source: Human, ribotype: 020) | 0.06 | 8 | 0.5 | 0.25 | 2 | 0.06 | 8 | < 0.001 | 4 |
| Clostridioides difficile PCR ribotype 020 isolate #103 (European region: North, country: UK, isolate source: Human, ribotype: 020) | 0.06 | 8 | 0.5 | 0.25 | 2 | 0.06 | 8 | < 0.001 | 4 |
| Clostridioides difficile PCR ribotype 020 isolate #104 (European region: South, country: Spain, isolate source: Human, ribotype: 020) | 0.015 | 4 | 0.5 | < 0.125 | 2 | < 0.03 | 4 | 0.002 | 2 |
| Clostridioides difficile PCR ribotype 020 isolate #105 (European region: East, country: Poland, isolate source: Human, ribotype: 020) | 0.03 | 2 | 1 | 0.25 | 2 | 0.06 | 8 | < 0.001 | 1 |
| Clostridioides difficile PCR ribotype 020 isolate #308 (European region: South, country: Spain, isolate source: Animal, ribotype: 020) | 0.06 | 4 | 0.5 | 0.25 | 2 | 0.06 | 16 | < 0.001 | 1 |
| Clostridioides difficile PCR ribotype 020 isolate #309 (European region: South, country: Spain, isolate source: Animal, ribotype: 020) | 0.03 | 4 | 0.5 | 0.25 | 2 | 0.06 | 16 | < 0.001 | 1 |
| Clostridioides difficile PCR ribotype 020 isolate #310 (European region: South, country: Italy, isolate source: Animal, ribotype: 020) | 0.03 | 4 | 0.5 | < 0.125 | 2 | 0.06 | 16 | < 0.001 | 2 |
| Clostridioides difficile PCR ribotype 023 isolate #106 (European region: East, country: Poland, isolate source: Human, ribotype: 023) | 0.03 | 2 | 0.5 | < 0.125 | 2 | < 0.03 | 0.25 | < 0.001 | 2 |
| Clostridioides difficile PCR ribotype 023 isolate #107 (European region: East, country: Poland, isolate source: Human, ribotype: 023) | 0.03 | 2 | 0.5 | < 0.125 | 2 | < 0.03 | 0.5 | < 0.001 | 2 |
| Clostridioides difficile PCR ribotype 023 isolate #108 (European region: North, country: UK, isolate source: Human, ribotype: 023) | 0.06 | 4 | 1 | < 0.125 | 2 | 0.06 | 0.25 | < 0.001 | 2 |
| Clostridioides difficile PCR ribotype 024 isolate #109 (European region: East, country: Romania, isolate source: Human, ribotype: 024) | 0.03 | 2 | 0.5 | < 0.125 | < 0.125 | < 0.03 | < 0.125 | < 0.001 | 4 |
| Clostridioides difficile PCR ribotype 026 isolate #110 (European region: North, country: UK, isolate source: Human, ribotype: 026) | 0.015 | 2 | 0.5 | 0.25 | 2 | < 0.03 | 8 | < 0.001 | 2 |
| Clostridioides difficile PCR ribotype 026 isolate #111 (European region: North, country: UK, isolate source: Human, ribotype: 026) | 0.06 | 2 | 0.5 | < 0.125 | 2 | < 0.03 | 16 | < 0.001 | 2 |
| Clostridioides difficile PCR ribotype 026 isolate #112 (European region: North, country: Sweden, isolate source: Human, ribotype: 026) | 0.03 | 4 | 0.5 | < 0.125 | 0.5 | < 0.03 | 4 | < 0.001 | 2 |
| Clostridioides difficile PCR ribotype 026 isolate #113 (European region: West, country: Netherlands, isolate source: Human, ribotype: 026) | 0.06 | 2 | 0.5 | < 0.125 | 2 | < 0.03 | 0.5 | < 0.001 | 2 |
| Clostridioides difficile PCR ribotype 027 isolate #114 (European region: East, country: Poland, isolate source: Human, ribotype: 027) | 0.06 | 4 | 1 | 4 | 2 | < 0.03 | 4 | > 32 | 8 |
| Clostridioides difficile PCR ribotype 027 isolate #115 (European region: East, country: Romania, isolate source: Human, ribotype: 027) | 0.03 | 4 | 1 | 1 | 2 | < 0.03 | 16 | > 32 | 4 |
| Clostridioides difficile PCR ribotype 027 isolate #116 (European region: East, country: Romania, isolate source: Human, ribotype: 027) | 0.03 | 4 | 1 | 1 | 1 | < 0.03 | 4 | > 32 | 4 |
| Clostridioides difficile PCR ribotype 027 isolate #119 (European region: East, country: Poland, isolate source: Human, ribotype: 027) | 0.125 | 4 | 1 | 4 | 2 | < 0.03 | 16 | > 32 | 4 |
| Clostridioides difficile PCR ribotype 027 isolate #120 (European region: East, country: Poland, isolate source: Human, ribotype: 027) | 0.03 | 4 | 1 | 4 | 2 | < 0.03 | 8 | < 0.001 | 8 |
| Clostridioides difficile PCR ribotype 027 isolate #121 (European region: South, country: Italy, isolate source: Human, ribotype: 027) | 0.008 | 4 | 0.5 | 1 | 2 | < 0.03 | 4 | > 32 | 4 |
| Clostridioides difficile PCR ribotype 027 isolate #122 (European region: East, country: Poland, isolate source: Human, ribotype: 027) | 0.06 | 4 | 0.5 | 2 | 2 | < 0.03 | 4 | > 32 | 4 |
| Clostridioides difficile PCR ribotype 027 isolate #123 (European region: North, country: UK, isolate source: Human, ribotype: 027) | 0.06 | 4 | 1 | 1 | 2 | 0.06 | > 128 | < 0.001 | 4 |
| Clostridioides difficile PCR ribotype 027 isolate #124 (European region: East, country: Romania, isolate source: Human, ribotype: 027) | 0.03 | 2 | 0.5 | 1 | 2 | < 0.03 | 16 | > 32 | 8 |

Single records, from the list above. Values in the order: minimum inhibitory concentration [1] [µg/mL] | minimum inhibitory concentration [2] [µg/mL] | minimum inhibitory concentration [3] [µg/mL] | minimum inhibitory concentration [4] [µg/mL] | minimum inhibitory concentration [5] [µg/mL] | minimum inhibitory concentration [6] [µg/mL] | minimum inhibitory concentration [7] [µg/mL] | minimum inhibitory concentration [8] [µg/mL] | minimum inhibitory concentration [9] [µg/mL]
Clostridioides difficile PCR ribotype 027 isolate #115 (European region: East, country: Romania, isolate source: Human, ribotype: 027) is listed with 0.03 | 4 | 1 | 1 | 2 | < 0.03 | 16 | > 32 | 4
Clostridioides difficile PCR ribotype 023 isolate #108 (European region: North, country: UK, isolate source: Human, ribotype: 023) is listed with 0.06 | 4 | 1 | < 0.125 | 2 | 0.06 | 0.25 | < 0.001 | 2
